# Results: the supplement of paper PMC8728848
# The other results are listed elsewhere or left out.
# B1: Flo11 (Saccharomyces cerevisiae), P08640 (protein)
# chain: MQRPFLLAYLVLSLLFNSALGFPTALVPRGSSEGTSCNSIVNGCPNLDFNWHMDQQNIMQYTLDVTSVSWVQDNTYQITIHVKGKENIDLKYLWSLKIIGVTGPKGTVQLYGYNENTYLIDNPTDFTATFEVYATQDVNSCQVWMPNFQIQFEYLQGSAAQYASSWQWGTTSFDLSTGCNNYDNQGHSQTDFPGFYWNIDCDNNCGGTKSSTTTSSTSESSTTTSSTSESSTTTSSTSESSTTTSSTSESSTSSSTTAPATPTTTSCTKEKPTPPTTTSCTKEKPTPPHHDTTPCTKKKTTTSKTCTKKTTTPVPTPSSSTTESSSAPVPTPSSSTTESSSAPVTSSTTESSSAPVPTPSSSTTESSSAPVTSSTTESSSAPVTSSTTESSSAPVPTPSSSTTESSSAPVTSSTTESSSAPVTSSTTESSSAPVTSSTTESSSAPVTSSTTESSSAPVPTPSSSTTESSSAPVTSSTTESSSAPVPTPSSSTTESSSAPVTSSTTESSSAPVPTPSSSTTESSSAPAPTPSSSTTESSSAPVTSSTTESSSAPVPTPSSSTTESSSTPVTSSTTESSSAPVPTPSSSTTESSSAPVPTPSSSTTESSSAPAPTPSSSTTESSSAPVTSSTTESSSAPVPTPSSSTTESSSAPVPTPSSSTTESSSAPVPTPSSSTTESSSAPVTSSTTESSSAPVTSSTTESSSAPVPTPSSSTTESSSAPVPTPSSSTTESSSAPVPTPSSSTTESSSAPVTSSTTESSSAPVPTPSSSTTESSSAPVPTPSSSTTESSSAPVPTPSSSTTESSVAPVPTPSSSSNITSSAPSSTPFSSSTESSSVPVPTPSSSTTESSSAPVSSSTTESSVAPVPTPSSSSNITSSAPSSIPFSSTTESFSTGTTVTPSSSKYPGSQTETSVSSTTETTIVPTKTTTSVTTPSTTTITTTVCSTGTNSAGETTSGCSPKTVTTTVPTTTTTSVTTSSTTTITTTVCSTGTNSAGETTSGCSPKTITTTVPCSTSPSETASESTTTSPTTPVTTVVSTTVVTTEYSTSTKPGGEITTTFVTKNIPTTYLTTIAPTPSVTTVTNFTPTTITTTVCSTGTNSAGETTSGCSPKTVTTTVPCSTGTGEYTTEATTLVTTAVTTTVVTTESSTGTNSAGKTTTGYTTKSVPTTYVTTLAPSAPVTPATNAVPTTITTTECSAATNAAGETTSVCSAKTIVSSASAGENTAPSATTPVTTAIPTTVITTESSVGTNSAGETTTGYTTKSIPTTYITTLIPGSNGAKNYETVATATNPISIKTTSQLATTASASSVAPVVTSPSLTGPLQSASGSAVATYSVPSISSTYQGAANIKVLGNFMWLLLALPVVF
# Columns and labels:
# Test in all cases: glycan array binding signal (z-score within array); higher = stronger binding
# Conditions in all cases: glycan notation: IUPAC condensed, linker removed
# [1] = target: Gal(a1-4)Gal(b1-4)GlcNAc(b1-2)Man(a1-3)[Gal(a1-4)Gal(b1-4)GlcNAc(b1-2)Man(a1-6)]Man(b1-4)GlcNAc(b1-4)GlcNAc
# Method in brief: (§1)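 The binding signal is a Z-score computed within each array and averaged over linkers. Arrays of the same protein sequence at different concentrations or buffers were also averaged together. Data originate from 3228 arrays in the Consortium for Functional Glycomics database, kept only where the protein sequence was available.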
# [2] = target: Gal(a1-4)Gal(b1-4)GlcNAc(b1-3)Gal(b1-4)Glc
# Method in brief: as §1
# [3] = target: Gal(a1-4)GlcNAc
# Method in brief: as §1
# [4] = target: Gal(a1-6)Glc
# Method in brief: as §1
# [5] = target: Gal(b1-2)Gal
# Method in brief: as §1
# [6] = target: Gal(b1-3)Gal
# Method in brief: as §1
# [7] = target: Gal(b1-3)Gal(b1-4)GlcNAc
# Method in brief: as §1
# [8] = target: Gal(b1-3)Gal(b1-4)GlcNAc(b1-2)Man(a1-3)[Gal(b1-3)Gal(b1-4)GlcNAc(b1-2)Man(a1-6)]Man(b1-4)GlcNAc(b1-4)GlcNAc
# Method in brief: as §1
# [9] = target: Gal(b1-3)GalNAc
# Method in brief: as §1
# [10] = target: Gal(b1-3)GalNAc(a1-3)[Fuc(a1-2)]Gal(b1-4)Glc
# Method in brief: as §1
# [11] = target: Gal(b1-3)GalNAc(a1-3)[Fuc(a1-2)]Gal(b1-4)GlcNAc
# Method in brief: as §1
# [12] = target: Gal(b1-3)GalNAc(b1-3)Gal(a1-4)Gal(b1-4)Glc
# Method in brief: as §1
# [13] = target: Gal(b1-3)GalNAc(b1-4)Gal(b1-4)Glc
# Method in brief: as §1
# [14] = target: Gal(b1-3)GalNAc(b1-4)[Neu5Ac(a2-3)]Gal(b1-4)Glc
# Method in brief: as §1
# [15] = target: Gal(b1-3)GlcNAc
# Method in brief: as §1
# [16] = target: Gal(b1-3)GlcNAc(a1-6)Gal(b1-4)GlcNAc
# Method in brief: as §1
# [17] = target: Gal(b1-3)GlcNAc(b1-2)Man(a1-3)[Gal(b1-3)GlcNAc(b1-2)Man(a1-6)]Man(b1-4)GlcNAc(b1-4)GlcNAc
# Method in brief: as §1
# [18] = target: Gal(b1-3)GlcNAc(b1-2)Man(a1-3)[Gal(b1-3)GlcNAc(b1-2)Man(a1-6)]Man(b1-4)GlcNAc(b1-4)[Fuc(a1-6)]GlcNAc
# Method in brief: as §1
# [19] = target: Gal(b1-3)GlcNAc(b1-2)[Gal(b1-3)GlcNAc(b1-6)]Man(a1-6)[Gal(b1-3)GlcNAc(b1-2)Man(a1-3)]Man(b1-4)GlcNAc(b1-4)GlcNAc
# Method in brief: as §1
# [20] = target: Gal(b1-3)GlcNAc(b1-3)Gal(b1-3)GlcNAc
# Method in brief: as §1
# [21] = target: Gal(b1-3)GlcNAc(b1-3)Gal(b1-4)Glc
# Method in brief: as §1
# [22] = target: Gal(b1-3)GlcNAc(b1-3)Gal(b1-4)GlcNAc
# Method in brief: as §1
# [23] = target: Gal(b1-3)GlcNAc(b1-3)Gal(b1-4)GlcNAc(b1-6)[Gal(b1-3)GlcNAc(b1-3)]Gal(b1-4)Glc
# Method in brief: as §1
# [24] = target: Gal(b1-3)GlcNAc(b1-3)Gal(b1-4)[Fuc(a1-3)]GlcNAc(b1-6)[Gal(b1-3)GlcNAc(b1-3)]Gal(b1-4)Glc
# Method in brief: as §1
# [25] = target: Gal(b1-3)GlcNAc(b1-3)GalNAc
# Method in brief: as §1
# [26] = target: Gal(b1-3)GlcNAc(b1-6)Gal(b1-4)GlcNAc
# Method in brief: as §1
# [27] = target: Gal(b1-3)[Fuc(a1-4)]GlcNAc
# Method in brief: as §1
# [28] = target: Gal(b1-3)[Fuc(a1-4)]GlcNAc(b1-2)Man(a1-3)[Gal(b1-3)[Fuc(a1-4)]GlcNAc(b1-2)Man(a1-6)]Man(b1-4)GlcNAc(b1-4)GlcNAc
# Method in brief: as §1
# [29] = target: Gal(b1-3)[Fuc(a1-4)]GlcNAc(b1-2)Man(a1-3)[Gal(b1-3)[Fuc(a1-4)]GlcNAc(b1-2)Man(a1-6)]Man(b1-4)GlcNAc(b1-4)[Fuc(a1-6)]GlcNAc
# Method in brief: as §1
# [30] = target: Gal(b1-3)[Fuc(a1-4)]GlcNAc(b1-3)Gal(b1-3)[Fuc(a1-4)]GlcNAc
# Method in brief: as §1
# [31] = target: Gal(b1-3)[Fuc(a1-4)]GlcNAc(b1-3)Gal(b1-4)GlcNAc
# Method in brief: as §1
# [32] = target: Gal(b1-3)[Fuc(a1-4)]GlcNAc(b1-3)Gal(b1-4)[Fuc(a1-3)]GlcNAc
# Method in brief: as §1
# [33] = target: Gal(b1-3)[GlcNAc(b1-6)]GalNAc
# Method in brief: as §1
# [34] = target: Gal(b1-3)[Neu5Ac(a2-6)]GalNAc
# Method in brief: as §1
# [35] = target: Gal(b1-3)[Neu5Ac(a2-6)]GlcNAc(b1-6)Gal(b1-4)Glc
# Method in brief: as §1
# [36] = target: Gal(b1-3)[Neu5Ac(b2-6)]GalNAc
# Method in brief: as §1
# [37] = target: Gal(b1-4)Gal
# Method in brief: as §1
# [38] = target: Gal(b1-4)GalNAc(a1-3)[Fuc(a1-2)]Gal(b1-4)GlcNAc
# Method in brief: as §1
# [39] = target: Gal(b1-4)GalNAc(b1-3)[Fuc(a1-2)]Gal(b1-4)GlcNAc
# Method in brief: as §1
# [40] = target: Gal(b1-4)Glc
# Method in brief: as §1
# [41] = target: Gal(b1-4)Glc6S
# Method in brief: as §1
# [42] = target: Gal(b1-4)GlcNAc
# Method in brief: as §1
# [43] = target: Gal(b1-4)GlcNAc(a1-6)Gal(b1-4)GlcNAc
# Method in brief: as §1
# [44] = target: Gal(b1-4)GlcNAc(b1-2)Man
# Method in brief: as §1
# [45] = target: Gal(b1-4)GlcNAc(b1-2)Man(a1-3)Man(b1-4)GlcNAc(b1-4)GlcNAc
# Method in brief: as §1
binder,measurement,setting,value
B1,glycan array binding signal (z-score),[1],0.617
same,glycan array binding signal (z-score),[2],0.408
same,glycan array binding signal (z-score),[3],-0.72
same,glycan array binding signal (z-score),[4],-0.453
same,glycan array binding signal (z-score),[5],-1.32
same,glycan array binding signal (z-score),[6],-0.531
same,glycan array binding signal (z-score),[7],0.164
same,glycan array binding signal (z-score),[8],0.049
same,glycan array binding signal (z-score),[9],0.012
same,glycan array binding signal (z-score),[10],0.782
same,glycan array binding signal (z-score),[11],-0.07
same,glycan array binding signal (z-score),[12],-0.275
same,glycan array binding signal (z-score),[13],-0.689
same,glycan array binding signal (z-score),[14],-0.366
same,glycan array binding signal (z-score),[15],-1.14
same,glycan array binding signal (z-score),[16],-0.168
same,glycan array binding signal (z-score),[17],-0.157
same,glycan array binding signal (z-score),[18],-0.209
same,glycan array binding signal (z-score),[19],-0.917
same,glycan array binding signal (z-score),[20],-1.14
same,glycan array binding signal (z-score),[21],0.819
same,glycan array binding signal (z-score),[22],-0.473
same,glycan array binding signal (z-score),[23],1
same,glycan array binding signal (z-score),[24],1.49
same,glycan array binding signal (z-score),[25],2.03
same,glycan array binding signal (z-score),[26],2.02
same,glycan array binding signal (z-score),[27],-0.478
same,glycan array binding signal (z-score),[28],-0.241
same,glycan array binding signal (z-score),[29],0.671
same,glycan array binding signal (z-score),[30],-0.512
same,glycan array binding signal (z-score),[31],-0.794
same,glycan array binding signal (z-score),[32],-0.846
same,glycan array binding signal (z-score),[33],-1.34
same,glycan array binding signal (z-score),[34],-0.164
same,glycan array binding signal (z-score),[35],0.844
same,glycan array binding signal (z-score),[36],-1.45
same,glycan array binding signal (z-score),[37],-0.601
same,glycan array binding signal (z-score),[38],-0.429
same,glycan array binding signal (z-score),[39],0.058
same,glycan array binding signal (z-score),[40],0.03
same,glycan array binding signal (z-score),[41],0.516
same,glycan array binding signal (z-score),[42],-0.125
same,glycan array binding signal (z-score),[43],-1
same,glycan array binding signal (z-score),[44],0.447
same,glycan array binding signal (z-score),[45],-0.143

# For reference, some entries already given.
binder,measurement,setting,value
B1,glycan array binding signal (z-score),[3],-0.72
same,glycan array binding signal (z-score),[4],-0.453
same,glycan array binding signal (z-score),[5],-1.32
